# In article PMC6684583:
# Protein sequences, listed by entry. Tags and fused reporters are not part of them.
# UniProt Q9Z0R4: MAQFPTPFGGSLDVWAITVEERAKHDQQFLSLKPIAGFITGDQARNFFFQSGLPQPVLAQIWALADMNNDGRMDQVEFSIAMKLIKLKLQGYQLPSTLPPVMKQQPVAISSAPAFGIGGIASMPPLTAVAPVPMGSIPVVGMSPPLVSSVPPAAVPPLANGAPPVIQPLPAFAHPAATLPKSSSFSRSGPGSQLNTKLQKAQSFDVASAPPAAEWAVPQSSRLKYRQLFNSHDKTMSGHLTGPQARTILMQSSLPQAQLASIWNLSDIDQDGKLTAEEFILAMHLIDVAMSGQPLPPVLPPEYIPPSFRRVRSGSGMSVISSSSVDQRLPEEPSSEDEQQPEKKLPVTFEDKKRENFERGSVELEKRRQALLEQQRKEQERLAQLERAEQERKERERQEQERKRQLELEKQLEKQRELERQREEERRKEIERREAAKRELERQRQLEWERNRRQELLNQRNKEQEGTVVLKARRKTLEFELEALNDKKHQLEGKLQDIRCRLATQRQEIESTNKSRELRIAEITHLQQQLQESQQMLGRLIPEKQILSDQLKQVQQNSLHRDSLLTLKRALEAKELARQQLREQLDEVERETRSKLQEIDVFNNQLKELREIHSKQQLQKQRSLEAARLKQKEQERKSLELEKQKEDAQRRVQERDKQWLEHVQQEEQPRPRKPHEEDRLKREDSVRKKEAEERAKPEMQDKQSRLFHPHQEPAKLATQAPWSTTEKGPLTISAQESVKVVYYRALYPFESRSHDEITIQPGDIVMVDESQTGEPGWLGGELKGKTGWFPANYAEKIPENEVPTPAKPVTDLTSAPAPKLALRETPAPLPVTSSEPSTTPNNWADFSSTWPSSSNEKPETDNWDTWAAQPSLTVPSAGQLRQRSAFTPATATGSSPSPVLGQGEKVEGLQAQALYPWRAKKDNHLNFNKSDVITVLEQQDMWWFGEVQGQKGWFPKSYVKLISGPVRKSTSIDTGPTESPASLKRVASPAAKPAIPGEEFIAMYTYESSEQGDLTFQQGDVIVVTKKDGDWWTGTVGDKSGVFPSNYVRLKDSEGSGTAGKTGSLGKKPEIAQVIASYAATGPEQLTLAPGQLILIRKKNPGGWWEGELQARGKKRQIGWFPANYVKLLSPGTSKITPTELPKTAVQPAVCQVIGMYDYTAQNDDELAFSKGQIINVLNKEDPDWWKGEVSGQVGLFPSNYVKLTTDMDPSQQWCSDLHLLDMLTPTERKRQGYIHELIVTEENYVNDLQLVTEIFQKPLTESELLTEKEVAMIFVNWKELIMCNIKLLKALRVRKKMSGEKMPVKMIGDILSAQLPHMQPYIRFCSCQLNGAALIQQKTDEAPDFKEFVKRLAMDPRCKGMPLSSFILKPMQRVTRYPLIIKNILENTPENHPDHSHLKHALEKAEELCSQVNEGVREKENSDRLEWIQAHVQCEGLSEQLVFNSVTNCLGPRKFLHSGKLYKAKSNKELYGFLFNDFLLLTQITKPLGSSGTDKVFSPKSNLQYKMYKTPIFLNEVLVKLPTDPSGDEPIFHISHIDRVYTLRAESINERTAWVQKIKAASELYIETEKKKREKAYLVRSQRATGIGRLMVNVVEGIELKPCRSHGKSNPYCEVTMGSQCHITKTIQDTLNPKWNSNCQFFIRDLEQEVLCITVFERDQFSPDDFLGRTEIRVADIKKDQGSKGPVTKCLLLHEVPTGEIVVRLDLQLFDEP
# UniProt P17427: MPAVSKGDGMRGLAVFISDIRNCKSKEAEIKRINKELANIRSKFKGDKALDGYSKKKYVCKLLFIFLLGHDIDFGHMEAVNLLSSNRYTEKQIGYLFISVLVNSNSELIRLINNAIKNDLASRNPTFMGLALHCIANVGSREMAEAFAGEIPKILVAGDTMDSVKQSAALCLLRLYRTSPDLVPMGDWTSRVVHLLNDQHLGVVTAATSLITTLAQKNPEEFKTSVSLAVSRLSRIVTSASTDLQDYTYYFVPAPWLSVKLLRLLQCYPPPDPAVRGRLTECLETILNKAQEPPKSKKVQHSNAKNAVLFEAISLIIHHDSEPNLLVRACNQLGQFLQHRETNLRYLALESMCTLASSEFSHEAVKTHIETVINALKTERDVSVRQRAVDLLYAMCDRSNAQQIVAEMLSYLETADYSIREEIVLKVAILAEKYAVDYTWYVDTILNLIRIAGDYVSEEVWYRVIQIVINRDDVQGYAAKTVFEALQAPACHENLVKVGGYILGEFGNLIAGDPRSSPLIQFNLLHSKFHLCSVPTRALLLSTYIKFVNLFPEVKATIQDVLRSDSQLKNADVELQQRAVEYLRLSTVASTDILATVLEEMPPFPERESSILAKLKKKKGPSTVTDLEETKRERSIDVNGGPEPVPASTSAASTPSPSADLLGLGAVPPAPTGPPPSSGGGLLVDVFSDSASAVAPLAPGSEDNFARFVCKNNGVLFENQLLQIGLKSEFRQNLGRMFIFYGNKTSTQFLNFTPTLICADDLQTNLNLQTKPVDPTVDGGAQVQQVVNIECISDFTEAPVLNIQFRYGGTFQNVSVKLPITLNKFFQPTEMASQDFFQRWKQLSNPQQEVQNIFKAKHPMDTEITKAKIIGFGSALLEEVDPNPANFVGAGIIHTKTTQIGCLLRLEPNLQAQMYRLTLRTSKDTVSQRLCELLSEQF
# UniProt Q9QWY8: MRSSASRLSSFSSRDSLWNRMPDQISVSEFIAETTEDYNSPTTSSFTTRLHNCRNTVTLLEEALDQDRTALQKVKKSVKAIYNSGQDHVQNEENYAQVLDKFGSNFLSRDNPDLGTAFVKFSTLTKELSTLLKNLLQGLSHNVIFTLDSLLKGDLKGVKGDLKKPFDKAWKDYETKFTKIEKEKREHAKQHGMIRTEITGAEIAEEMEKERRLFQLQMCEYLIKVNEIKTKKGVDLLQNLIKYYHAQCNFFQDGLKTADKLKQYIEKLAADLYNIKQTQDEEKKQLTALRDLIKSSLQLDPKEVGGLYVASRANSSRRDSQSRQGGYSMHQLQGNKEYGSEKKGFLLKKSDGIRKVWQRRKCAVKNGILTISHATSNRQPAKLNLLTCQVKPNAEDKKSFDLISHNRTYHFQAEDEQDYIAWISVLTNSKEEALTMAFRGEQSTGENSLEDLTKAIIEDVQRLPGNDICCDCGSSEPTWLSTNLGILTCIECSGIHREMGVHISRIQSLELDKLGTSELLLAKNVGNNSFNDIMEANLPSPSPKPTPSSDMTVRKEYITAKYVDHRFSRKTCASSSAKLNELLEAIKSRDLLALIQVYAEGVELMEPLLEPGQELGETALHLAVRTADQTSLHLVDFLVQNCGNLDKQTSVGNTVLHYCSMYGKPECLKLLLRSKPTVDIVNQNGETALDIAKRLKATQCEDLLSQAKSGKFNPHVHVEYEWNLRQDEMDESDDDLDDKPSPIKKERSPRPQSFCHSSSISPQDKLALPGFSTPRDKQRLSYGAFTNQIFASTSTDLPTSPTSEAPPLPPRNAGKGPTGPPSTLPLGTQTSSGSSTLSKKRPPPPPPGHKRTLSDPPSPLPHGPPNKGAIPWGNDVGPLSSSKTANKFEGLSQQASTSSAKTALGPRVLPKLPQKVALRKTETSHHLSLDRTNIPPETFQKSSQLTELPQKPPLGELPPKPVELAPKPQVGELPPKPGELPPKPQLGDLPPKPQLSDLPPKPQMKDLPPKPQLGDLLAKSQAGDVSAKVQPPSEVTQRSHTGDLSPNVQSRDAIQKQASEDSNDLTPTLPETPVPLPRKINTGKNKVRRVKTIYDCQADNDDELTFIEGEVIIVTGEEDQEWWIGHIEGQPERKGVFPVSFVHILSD
# UniProt P17426: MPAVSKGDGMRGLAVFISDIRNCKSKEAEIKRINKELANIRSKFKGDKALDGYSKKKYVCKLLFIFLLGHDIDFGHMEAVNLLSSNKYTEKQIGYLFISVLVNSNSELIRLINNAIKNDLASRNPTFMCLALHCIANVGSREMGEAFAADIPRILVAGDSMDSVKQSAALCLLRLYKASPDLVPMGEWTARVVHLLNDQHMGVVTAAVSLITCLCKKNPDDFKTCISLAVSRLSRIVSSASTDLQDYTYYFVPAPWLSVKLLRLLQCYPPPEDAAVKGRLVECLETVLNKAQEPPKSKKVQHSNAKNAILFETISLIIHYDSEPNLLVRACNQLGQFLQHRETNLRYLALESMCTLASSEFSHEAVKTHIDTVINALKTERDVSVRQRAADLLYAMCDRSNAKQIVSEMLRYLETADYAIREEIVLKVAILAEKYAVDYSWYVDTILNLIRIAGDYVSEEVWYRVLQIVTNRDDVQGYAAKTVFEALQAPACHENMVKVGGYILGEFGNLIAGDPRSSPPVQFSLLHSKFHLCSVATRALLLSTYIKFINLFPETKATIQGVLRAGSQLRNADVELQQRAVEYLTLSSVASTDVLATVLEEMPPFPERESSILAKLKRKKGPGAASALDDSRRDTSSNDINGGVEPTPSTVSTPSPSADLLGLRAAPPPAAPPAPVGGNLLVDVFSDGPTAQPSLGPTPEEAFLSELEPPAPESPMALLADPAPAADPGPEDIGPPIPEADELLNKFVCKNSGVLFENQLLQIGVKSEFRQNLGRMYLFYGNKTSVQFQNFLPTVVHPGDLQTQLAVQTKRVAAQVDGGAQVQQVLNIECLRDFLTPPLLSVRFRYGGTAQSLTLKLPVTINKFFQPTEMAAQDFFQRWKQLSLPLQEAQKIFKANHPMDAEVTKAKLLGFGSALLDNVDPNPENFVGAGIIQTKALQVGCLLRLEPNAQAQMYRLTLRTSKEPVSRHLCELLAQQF
# Results are given in words; binding and its absence hold for the method and conditions named. In cells and extracts the contact can be indirect. These calls come from enrichment with a bait or labelling near it, and not all partners need be listed.
# T1: AIDA-1 (APP intracellular domain associated 1), encoded by Anks1b (mouse (endogenous in mouse brain)) (UniProt Q8BIZ1)
# T1 sequence: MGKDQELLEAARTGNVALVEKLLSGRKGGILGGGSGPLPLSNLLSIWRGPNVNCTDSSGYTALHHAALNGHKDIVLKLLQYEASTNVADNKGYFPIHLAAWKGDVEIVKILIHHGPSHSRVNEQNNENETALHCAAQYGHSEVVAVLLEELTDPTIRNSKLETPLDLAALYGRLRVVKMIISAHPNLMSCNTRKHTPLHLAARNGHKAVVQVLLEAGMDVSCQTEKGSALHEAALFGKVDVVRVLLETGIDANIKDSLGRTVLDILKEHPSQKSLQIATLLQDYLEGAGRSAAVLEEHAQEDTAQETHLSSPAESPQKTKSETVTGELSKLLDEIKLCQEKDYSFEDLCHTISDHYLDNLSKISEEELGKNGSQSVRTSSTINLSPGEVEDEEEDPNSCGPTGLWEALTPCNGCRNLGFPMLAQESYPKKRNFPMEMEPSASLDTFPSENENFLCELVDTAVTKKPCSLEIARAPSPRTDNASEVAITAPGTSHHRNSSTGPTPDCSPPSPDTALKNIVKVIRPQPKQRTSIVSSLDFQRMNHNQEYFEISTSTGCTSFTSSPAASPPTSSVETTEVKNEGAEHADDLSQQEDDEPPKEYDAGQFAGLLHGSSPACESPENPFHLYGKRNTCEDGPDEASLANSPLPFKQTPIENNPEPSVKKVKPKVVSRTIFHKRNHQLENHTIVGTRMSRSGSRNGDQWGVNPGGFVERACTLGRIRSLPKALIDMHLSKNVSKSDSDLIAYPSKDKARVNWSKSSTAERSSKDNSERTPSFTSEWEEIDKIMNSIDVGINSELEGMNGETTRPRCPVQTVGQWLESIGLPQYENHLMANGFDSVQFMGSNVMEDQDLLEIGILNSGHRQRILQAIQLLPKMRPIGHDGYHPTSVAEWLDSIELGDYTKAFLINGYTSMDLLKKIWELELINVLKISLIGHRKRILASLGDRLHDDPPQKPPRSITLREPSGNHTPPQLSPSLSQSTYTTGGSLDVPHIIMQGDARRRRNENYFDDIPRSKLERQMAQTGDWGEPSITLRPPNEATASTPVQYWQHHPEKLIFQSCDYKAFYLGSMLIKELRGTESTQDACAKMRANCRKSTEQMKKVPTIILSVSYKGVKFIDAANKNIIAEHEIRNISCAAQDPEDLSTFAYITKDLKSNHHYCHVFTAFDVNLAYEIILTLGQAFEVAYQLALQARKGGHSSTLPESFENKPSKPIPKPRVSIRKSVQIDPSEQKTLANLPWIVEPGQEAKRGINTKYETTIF
# Target: T1, AIDA-1 (APP intracellular domain associated 1), encoded by Anks1b (mouse (endogenous in mouse brain))
# Assay: affinity purification with mass spectrometry; AIDA-1 antibodies (C-10, 2B22 or Mix of C-10 + 1A11 + 2B22) crosslinked to protein G agarose or magnetic beads; 5 mg whole mouse brain lysate in DBM buffer and in RIPA buffer, eluates pooled; 10-plex TMT labelling; enrichment over mouse IgG control (>1.4-fold agarose, >3.0-fold magnetic, at least 3 peptides)
row,Molecule,binding
1,Itsn1 (from UniProt Q9Z0R4 1-1714),binds
2,Srgap2 (from UniProt Q91Z67 1-1071),binds
3,Ap2a2 (from UniProt P17427 1-938),binds
4,"Git1 (protein, UniProt Q68FF6 1-770) MSRKGPRAEVCADCSAPDPGWASISRGVLVCDECCSVHRSLGRHISIVKHLRHSAWPPTLLQMVHTLASNGANSIWEHSLLDPAQVQSGRRKANPQDKVHPIKSEFIRAKYQMLAFVHKLPCRDDDGVTAKDLSKQLHSSVRTGNLETCLRLLSLGAQANFFHPEKGTTPLHVAAKAGQTLQAELLVVYGADPGSPDVNGRTPIDYARQAGHHELAERLVECQYELTDRLAFYLCGRKPDHKNGHYIIPQMADRSRQKCMSQSLDLSELAKAAKKKLQALSNRLFEELAMDVYDEVDRRENDAVWLATQNHSTLVTERSAVPFLPVNPEYSATRNQGRQKLARFNAREFATLIIDILSEAKRRQQGKSLSSPTDNLELSARSQSELDDQHDYDSVASDEDTDQEPLPSAGATRNNRARSMDSSDLSDGAVTLQEYLELKKALATSEAKVQQLMKVNSSLSDELRRLQREIHKLQAENLQLRQPPGPVPPPSLPSERAEHTLMGPGGSTHRRDRQAFSMYEPGSALKPFGGTPGDELATRLQPFHSTELEDDAIYSVHVPAGLYRIRKGVSASSVPFTPSSPLLSCSQEGSRHASKLSRHGSGADSDYENTQSGDPLLGLEGKRFLELSKEDELHPELESLDGDLDPGLPSTEDVILKTEQVTKNIQELLRAAQEFKHDSFVPCSEKIHLAVTEMASLFPKRPALEPVRSSLRLLNASAYRLQSECRKTVPPEPGAPVDFQLLTQQVIQCAYDIAKAAKQLVTITTREKKQ",binds

# Other lines, results leading:
row,binding,Molecule
1,binds,Asap1 (from UniProt Q9QWY8 1-1147)
2,binds,Ap2a1 (from UniProt P17426 1-977)
3,binds,SynGAP1 (from UniProt F6SEU4 1-1340)
